For 23 targets, log2 fold change results are on record in the supplement of paper PMC10849652.

By UniProt entry, the sequences of proteins in these tests, tags left out. Where a name states a change or a piece, a line headed by the entry shows the natural chain unless it says otherwise.
UniProt Q9BQ52: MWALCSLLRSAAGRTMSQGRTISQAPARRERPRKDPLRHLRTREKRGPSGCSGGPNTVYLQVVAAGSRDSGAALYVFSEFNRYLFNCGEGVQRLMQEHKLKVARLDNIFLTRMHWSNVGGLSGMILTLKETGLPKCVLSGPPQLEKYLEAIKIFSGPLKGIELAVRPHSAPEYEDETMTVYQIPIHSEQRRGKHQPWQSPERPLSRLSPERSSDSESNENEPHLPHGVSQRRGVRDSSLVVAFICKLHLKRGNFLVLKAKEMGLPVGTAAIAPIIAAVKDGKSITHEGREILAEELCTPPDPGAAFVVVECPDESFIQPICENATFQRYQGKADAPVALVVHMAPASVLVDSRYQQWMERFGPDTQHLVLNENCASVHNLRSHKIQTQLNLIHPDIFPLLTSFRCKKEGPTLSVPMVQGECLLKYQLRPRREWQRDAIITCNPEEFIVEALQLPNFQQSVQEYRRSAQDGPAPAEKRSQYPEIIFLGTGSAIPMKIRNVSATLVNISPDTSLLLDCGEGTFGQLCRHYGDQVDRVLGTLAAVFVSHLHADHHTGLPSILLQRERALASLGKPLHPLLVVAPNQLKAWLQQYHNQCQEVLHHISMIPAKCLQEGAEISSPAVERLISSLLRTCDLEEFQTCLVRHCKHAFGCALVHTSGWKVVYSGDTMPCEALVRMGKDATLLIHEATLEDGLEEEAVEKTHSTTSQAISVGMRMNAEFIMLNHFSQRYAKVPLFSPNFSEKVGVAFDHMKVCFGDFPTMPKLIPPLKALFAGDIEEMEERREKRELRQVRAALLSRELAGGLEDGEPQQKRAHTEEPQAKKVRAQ
UniProt O00303, whole entry, looked up: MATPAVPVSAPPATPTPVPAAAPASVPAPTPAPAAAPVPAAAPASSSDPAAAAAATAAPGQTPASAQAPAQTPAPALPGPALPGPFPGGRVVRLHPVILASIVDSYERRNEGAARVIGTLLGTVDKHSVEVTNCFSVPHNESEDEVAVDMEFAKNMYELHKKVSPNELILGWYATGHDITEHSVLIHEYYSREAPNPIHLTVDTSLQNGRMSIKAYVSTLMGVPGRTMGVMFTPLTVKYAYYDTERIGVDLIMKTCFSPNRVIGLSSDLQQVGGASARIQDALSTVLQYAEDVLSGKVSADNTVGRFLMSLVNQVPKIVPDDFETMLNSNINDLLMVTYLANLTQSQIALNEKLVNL
UniProt Q5UCC4: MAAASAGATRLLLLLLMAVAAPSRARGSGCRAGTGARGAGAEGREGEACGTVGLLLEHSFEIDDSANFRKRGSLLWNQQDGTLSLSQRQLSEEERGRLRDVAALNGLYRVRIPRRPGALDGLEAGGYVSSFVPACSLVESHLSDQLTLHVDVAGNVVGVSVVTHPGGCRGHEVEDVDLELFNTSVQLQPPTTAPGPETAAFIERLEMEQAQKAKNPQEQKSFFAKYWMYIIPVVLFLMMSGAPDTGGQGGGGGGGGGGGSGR
UniProt O95834: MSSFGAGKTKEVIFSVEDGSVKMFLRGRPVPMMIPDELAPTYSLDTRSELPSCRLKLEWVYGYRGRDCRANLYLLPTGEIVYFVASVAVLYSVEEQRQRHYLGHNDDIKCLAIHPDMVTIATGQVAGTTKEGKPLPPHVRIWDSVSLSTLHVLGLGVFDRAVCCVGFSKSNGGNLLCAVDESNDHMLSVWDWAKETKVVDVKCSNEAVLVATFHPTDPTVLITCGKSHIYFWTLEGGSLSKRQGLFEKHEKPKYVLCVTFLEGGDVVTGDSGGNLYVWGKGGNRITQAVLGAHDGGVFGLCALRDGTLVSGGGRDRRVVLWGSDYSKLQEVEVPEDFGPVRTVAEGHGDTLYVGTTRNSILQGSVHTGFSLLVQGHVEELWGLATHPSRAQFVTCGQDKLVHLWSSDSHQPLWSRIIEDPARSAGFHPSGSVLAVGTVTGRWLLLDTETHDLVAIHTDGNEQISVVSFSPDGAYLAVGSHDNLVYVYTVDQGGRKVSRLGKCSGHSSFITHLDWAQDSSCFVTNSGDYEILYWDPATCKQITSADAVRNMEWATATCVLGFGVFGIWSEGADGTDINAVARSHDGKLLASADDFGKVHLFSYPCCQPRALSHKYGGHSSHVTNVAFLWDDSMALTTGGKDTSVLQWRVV
UniProt O43402: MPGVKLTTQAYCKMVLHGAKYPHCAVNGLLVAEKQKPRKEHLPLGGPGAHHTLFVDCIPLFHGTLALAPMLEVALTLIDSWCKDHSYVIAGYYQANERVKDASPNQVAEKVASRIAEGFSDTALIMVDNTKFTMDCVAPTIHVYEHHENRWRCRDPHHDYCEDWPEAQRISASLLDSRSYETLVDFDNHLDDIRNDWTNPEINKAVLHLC
UniProt Q8NFI3: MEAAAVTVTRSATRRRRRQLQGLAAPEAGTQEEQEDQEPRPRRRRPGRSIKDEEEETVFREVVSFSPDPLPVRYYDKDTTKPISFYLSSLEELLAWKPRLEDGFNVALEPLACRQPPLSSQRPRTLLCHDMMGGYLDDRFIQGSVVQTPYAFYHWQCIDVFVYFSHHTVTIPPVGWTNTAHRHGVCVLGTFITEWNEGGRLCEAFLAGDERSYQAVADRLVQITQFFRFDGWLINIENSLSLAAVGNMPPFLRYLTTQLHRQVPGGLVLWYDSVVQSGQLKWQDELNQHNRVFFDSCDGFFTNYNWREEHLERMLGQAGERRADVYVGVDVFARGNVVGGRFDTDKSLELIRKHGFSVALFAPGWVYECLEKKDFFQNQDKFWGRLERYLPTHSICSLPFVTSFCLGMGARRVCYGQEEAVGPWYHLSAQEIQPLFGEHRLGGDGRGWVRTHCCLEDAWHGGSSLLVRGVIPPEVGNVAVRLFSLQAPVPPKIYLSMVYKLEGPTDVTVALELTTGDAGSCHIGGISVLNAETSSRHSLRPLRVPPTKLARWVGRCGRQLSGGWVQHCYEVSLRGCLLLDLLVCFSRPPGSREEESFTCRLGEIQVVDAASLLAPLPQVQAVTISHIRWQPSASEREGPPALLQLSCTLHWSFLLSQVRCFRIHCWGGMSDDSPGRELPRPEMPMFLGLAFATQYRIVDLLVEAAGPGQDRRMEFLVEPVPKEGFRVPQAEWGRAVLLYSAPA
UniProt Q9UBC2: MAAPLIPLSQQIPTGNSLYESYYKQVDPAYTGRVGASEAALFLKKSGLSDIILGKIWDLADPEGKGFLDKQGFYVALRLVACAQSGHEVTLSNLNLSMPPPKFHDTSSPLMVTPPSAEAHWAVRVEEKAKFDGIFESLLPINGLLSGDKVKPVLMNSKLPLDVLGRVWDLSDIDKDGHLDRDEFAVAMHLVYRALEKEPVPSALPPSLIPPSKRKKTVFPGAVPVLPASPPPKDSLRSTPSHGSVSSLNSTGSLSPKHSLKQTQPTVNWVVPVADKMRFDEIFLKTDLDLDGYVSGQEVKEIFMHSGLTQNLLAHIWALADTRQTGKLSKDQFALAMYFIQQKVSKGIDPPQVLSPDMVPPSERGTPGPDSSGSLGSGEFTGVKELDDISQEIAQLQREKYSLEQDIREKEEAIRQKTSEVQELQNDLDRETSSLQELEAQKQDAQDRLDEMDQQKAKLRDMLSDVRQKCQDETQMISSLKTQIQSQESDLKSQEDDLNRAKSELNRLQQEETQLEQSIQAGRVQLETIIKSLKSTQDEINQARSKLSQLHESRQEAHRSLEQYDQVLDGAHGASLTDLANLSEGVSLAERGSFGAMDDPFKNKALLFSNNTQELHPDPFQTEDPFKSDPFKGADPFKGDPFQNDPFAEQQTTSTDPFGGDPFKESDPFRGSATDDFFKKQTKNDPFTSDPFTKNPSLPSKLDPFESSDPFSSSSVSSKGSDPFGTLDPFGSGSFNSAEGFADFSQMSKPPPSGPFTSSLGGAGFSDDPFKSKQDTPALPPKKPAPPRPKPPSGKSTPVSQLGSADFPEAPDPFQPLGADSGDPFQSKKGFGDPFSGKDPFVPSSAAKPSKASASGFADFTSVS
UniProt O75356: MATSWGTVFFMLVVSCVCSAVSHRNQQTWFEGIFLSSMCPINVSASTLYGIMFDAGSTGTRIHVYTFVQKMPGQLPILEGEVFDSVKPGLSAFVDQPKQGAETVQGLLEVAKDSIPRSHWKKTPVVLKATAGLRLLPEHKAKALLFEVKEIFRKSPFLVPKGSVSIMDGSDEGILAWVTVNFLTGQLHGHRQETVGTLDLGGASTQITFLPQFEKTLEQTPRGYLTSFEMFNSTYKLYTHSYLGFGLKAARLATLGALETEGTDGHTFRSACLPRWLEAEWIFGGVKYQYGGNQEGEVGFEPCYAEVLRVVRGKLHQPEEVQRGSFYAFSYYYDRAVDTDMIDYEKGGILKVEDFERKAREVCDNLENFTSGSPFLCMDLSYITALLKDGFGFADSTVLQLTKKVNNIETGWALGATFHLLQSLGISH
UniProt Q0PNE2: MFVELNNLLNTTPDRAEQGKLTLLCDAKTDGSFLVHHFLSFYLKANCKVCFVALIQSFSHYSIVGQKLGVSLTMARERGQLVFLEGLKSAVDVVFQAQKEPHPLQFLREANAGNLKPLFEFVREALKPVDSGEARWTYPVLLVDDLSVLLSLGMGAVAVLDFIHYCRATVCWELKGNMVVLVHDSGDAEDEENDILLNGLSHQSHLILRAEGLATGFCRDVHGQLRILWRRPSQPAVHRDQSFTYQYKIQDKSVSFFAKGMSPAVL
UniProt Q15369, whole entry, looked up: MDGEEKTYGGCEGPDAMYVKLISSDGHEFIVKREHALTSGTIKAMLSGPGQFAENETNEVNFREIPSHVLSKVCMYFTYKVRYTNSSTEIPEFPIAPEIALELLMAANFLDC
UniProt Q32P44: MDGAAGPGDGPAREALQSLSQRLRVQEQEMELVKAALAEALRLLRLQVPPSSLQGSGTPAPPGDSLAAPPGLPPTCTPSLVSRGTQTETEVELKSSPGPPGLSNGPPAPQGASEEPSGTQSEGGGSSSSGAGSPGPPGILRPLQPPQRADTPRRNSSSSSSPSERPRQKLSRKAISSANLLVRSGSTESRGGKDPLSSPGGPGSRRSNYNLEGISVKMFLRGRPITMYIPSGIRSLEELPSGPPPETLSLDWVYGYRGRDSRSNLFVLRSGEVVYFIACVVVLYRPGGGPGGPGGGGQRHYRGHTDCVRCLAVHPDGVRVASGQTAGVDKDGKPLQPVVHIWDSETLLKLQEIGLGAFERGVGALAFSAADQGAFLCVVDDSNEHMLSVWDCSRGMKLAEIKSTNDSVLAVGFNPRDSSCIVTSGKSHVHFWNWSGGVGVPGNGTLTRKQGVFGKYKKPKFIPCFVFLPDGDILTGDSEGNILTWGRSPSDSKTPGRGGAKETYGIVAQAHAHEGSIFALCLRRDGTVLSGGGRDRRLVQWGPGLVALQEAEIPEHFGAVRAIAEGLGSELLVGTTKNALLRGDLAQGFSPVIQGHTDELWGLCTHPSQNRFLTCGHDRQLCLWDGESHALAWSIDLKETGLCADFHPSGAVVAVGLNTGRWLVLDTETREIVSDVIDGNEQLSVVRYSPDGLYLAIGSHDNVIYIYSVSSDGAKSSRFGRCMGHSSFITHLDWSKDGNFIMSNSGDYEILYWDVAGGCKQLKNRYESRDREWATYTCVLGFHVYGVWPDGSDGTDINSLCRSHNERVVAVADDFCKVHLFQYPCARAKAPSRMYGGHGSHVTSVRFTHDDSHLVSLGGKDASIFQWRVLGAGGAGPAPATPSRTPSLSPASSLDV
UniProt Q14241: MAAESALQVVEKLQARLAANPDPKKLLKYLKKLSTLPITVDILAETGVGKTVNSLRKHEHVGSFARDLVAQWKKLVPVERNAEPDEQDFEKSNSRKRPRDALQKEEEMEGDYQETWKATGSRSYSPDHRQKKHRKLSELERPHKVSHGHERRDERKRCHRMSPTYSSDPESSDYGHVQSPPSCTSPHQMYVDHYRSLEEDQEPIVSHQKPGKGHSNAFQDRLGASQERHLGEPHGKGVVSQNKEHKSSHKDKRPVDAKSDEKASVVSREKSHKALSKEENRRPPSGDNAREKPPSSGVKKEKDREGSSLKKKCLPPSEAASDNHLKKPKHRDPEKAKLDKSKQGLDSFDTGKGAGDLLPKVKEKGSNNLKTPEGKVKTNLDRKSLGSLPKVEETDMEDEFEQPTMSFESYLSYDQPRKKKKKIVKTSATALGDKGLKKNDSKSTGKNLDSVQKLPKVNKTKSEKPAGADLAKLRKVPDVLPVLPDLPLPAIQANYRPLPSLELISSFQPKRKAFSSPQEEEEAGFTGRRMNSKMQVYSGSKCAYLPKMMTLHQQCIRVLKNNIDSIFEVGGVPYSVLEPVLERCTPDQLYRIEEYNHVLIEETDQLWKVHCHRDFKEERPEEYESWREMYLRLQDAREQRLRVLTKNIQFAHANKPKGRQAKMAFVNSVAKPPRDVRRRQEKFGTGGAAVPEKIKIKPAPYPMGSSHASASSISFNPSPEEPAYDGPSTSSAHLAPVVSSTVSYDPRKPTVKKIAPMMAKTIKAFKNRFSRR

The other results are listed elsewhere or left out.

Compound in this test: CNC(=O)C1=CC=CC=C1NC2=NC(=NC=C2Cl)NC3=C(C=C(C=C3)N4CCOCC4)OC
The test is described as follows: log2 fold change, soluble protein after heating vs DMSO (PISA); higher = thermal stabilisation; K562 lysate, 10 uM; active = over 0.2 and 3.5 SD of the protein, either way, in both replicates (recomputed). Summed up: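 Log-two fold change in thermal stability relative to solvent controls is reported from duplicates. For each sample, crude K562 extract from dounce-homogenised pellets in PBS pH 7.4 with 1 mM MgCl2, at 1 mg/mL protein, was treated with 10 μM compound for 30 min. Aliquots heated for 3 min across 48°C-58°C were pooled, brought to 0.5% NP-40 at 4°C and cleared at 21,000xg for 90 min. The supernatant was quantified by TMTpro 16plex LC-MS/MS with channel sums equalised.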
EPB41L1 (UniProt Q9H4G0): the log2 fold change is inactive: 0.075.
Under ELAC2 (UniProt Q9BQ52) stands inactive: -0.006; under EIF4B (UniProt P23588), inactive: 0.002; under EIF3F (UniProt O00303), inactive: 0.028.
The value for EIF2D (UniProt P41214) was inactive: 0.003.
The value for EMC2 (UniProt Q15006) was inactive: -0.027; that for EP300 (UniProt Q09472) was inactive: -0.026.
As for EIF5B (UniProt O60841), the log2 fold change was inactive: -0.017.
On to ERCC2 (UniProt P18074), for which the log2 fold change is inactive: -0.018.
In the case of EMC10 (UniProt Q5UCC4), the log2 fold change was inactive: -0.004.
Consider EML2 isoform 3 (UniProt O95834), for which the log2 fold change was inactive: -0.001.
Under EMC8 (UniProt O43402) stands inactive: -0.018; under EIF3D (UniProt O15371), inactive: 0.073.
The value for ENGASE (UniProt Q8NFI3) was inactive: 0.043; that for EPS15L1 isoform 2 (UniProt Q9UBC2) was inactive: -0.008.
The value for EP400P1 isoform 6 (UniProt Q6ZTU2) was inactive: -0.017; that for ENTPD5 (UniProt O75356) was inactive: 0.095.
On to ELP6 (UniProt Q0PNE2), for which the log2 fold change is inactive: 0.034.
For EIF2B5 (UniProt Q13144), the log2 fold change is inactive: 0.04.
As for EIF3G (UniProt O75821), the log2 fold change was inactive: -0.008.
For ELOC (UniProt Q15369), the log2 fold change is inactive: 0.034.
The value for EML3 (UniProt Q32P44) was inactive: -0.001; that for ELOA (UniProt Q14241) was inactive: 0.073.
